From the supplement of paper PMC10849652
The other results are listed elsewhere or left out.

Chains of the proteins cited; added tags and fusions are not shown. Lines headed by an entry give the natural chain unless they say otherwise; changes in a name come on top.
UniProt P06132: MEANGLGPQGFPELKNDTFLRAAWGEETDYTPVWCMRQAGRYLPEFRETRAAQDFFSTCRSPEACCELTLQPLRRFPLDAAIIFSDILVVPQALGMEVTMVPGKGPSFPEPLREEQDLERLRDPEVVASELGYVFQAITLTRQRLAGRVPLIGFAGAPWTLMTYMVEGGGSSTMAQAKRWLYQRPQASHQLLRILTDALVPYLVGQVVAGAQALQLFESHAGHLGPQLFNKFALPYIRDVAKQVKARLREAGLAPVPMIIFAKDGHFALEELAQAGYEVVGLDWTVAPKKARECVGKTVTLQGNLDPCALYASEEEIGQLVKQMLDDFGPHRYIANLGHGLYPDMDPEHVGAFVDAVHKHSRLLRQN
UniProt O95292, whole entry, looked up: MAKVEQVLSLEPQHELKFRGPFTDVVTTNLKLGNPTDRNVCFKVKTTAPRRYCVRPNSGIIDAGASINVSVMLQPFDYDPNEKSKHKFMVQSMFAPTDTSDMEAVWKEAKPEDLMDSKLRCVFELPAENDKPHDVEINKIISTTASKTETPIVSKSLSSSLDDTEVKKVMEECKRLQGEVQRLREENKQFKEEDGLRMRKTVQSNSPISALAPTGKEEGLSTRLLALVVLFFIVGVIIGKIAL
UniProt Q969X6: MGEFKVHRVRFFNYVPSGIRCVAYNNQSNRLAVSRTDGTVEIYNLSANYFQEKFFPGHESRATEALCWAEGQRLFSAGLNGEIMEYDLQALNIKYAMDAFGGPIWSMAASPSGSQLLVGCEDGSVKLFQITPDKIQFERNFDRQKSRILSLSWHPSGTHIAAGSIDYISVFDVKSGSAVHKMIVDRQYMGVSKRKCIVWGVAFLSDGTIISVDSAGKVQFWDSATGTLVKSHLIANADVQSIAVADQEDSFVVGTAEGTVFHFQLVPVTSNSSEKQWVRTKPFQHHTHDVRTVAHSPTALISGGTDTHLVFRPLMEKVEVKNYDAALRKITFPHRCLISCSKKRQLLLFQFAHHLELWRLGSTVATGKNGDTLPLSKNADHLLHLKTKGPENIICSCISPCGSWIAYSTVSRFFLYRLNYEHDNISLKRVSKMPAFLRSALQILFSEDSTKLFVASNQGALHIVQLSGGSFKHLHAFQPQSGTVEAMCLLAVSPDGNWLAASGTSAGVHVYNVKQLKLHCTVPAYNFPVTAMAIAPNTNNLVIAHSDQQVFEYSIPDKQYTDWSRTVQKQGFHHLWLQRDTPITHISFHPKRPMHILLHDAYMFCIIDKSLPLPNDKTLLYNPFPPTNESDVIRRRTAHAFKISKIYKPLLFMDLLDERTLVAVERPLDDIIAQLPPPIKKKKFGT
UniProt Q9P0L0: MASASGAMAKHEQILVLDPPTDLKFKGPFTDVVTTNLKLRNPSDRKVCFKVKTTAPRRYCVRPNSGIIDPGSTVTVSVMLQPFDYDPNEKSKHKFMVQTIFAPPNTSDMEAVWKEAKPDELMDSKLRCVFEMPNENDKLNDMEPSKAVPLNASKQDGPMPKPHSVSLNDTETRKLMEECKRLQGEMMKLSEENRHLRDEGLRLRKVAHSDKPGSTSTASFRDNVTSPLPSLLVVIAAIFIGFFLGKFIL
UniProt P11441: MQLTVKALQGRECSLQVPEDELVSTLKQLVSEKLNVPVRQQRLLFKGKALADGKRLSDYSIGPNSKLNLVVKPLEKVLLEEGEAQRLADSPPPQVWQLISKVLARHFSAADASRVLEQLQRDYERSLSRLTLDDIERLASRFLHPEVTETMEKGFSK
UniProt Q9NRR5, whole entry, looked up: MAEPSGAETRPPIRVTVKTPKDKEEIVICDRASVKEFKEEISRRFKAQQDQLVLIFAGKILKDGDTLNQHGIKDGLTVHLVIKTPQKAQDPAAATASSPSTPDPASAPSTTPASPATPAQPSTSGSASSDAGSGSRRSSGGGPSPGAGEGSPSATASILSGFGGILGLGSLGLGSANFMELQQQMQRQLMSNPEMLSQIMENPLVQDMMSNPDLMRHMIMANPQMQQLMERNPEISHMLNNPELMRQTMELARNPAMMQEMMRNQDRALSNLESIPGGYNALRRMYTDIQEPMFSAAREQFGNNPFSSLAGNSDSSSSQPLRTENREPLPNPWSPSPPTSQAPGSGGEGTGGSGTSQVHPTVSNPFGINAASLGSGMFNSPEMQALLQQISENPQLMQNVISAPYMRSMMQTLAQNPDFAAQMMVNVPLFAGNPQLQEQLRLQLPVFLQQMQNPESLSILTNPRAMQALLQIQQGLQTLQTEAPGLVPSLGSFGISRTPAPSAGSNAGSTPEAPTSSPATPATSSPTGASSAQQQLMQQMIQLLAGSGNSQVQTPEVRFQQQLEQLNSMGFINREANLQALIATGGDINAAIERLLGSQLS
UniProt Q16739: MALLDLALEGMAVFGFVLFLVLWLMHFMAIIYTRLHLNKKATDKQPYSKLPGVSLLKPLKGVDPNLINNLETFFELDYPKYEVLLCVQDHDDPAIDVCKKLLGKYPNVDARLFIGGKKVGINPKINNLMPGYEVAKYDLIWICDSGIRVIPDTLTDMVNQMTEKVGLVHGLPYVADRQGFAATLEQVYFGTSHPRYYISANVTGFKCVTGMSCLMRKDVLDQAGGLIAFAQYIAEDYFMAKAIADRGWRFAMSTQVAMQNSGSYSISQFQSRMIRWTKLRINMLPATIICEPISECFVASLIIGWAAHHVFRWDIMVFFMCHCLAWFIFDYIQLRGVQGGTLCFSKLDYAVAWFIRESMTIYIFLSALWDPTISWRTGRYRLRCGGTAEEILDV
UniProt Q9UBK9, whole entry, looked up: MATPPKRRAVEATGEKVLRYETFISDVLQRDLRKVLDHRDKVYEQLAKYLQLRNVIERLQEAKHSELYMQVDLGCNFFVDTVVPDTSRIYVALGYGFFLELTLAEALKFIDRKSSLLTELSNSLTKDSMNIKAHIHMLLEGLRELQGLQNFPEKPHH
UniProt P47985: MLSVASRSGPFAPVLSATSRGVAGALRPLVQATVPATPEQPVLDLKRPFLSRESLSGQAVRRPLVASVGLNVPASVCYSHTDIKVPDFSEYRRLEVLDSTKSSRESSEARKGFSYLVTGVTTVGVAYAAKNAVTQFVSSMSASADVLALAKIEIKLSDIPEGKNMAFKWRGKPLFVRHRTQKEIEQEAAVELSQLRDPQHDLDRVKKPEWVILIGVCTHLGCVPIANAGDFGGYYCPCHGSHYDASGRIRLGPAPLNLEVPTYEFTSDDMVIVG
UniProt Q14139: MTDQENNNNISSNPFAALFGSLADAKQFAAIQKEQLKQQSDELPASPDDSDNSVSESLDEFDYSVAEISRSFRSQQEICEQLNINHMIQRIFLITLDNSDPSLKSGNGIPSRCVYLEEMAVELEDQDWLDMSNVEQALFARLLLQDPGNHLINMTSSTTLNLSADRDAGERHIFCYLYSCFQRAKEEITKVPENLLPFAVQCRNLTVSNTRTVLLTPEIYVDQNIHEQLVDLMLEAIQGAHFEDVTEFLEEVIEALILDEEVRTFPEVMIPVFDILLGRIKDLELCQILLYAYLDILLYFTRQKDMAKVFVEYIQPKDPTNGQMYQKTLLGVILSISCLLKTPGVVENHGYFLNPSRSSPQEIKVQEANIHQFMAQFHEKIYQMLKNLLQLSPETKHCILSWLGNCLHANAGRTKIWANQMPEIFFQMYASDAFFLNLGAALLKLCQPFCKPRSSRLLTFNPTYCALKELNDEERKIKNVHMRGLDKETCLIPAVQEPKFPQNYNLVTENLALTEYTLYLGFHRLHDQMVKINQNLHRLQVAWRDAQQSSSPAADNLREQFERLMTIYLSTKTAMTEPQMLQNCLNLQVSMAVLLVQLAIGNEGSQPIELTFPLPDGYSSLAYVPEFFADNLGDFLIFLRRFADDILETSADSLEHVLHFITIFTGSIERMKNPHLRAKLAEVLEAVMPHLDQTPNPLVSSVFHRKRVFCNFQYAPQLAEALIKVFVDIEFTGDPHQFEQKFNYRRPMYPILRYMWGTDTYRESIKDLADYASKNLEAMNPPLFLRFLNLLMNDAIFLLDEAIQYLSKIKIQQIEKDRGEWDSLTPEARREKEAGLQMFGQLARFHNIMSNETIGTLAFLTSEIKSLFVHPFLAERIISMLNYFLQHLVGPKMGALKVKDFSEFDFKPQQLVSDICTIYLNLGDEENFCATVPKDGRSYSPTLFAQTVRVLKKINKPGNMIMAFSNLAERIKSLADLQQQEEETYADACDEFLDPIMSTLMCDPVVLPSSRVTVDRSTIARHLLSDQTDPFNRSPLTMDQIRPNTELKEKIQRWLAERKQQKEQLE
UniProt Q9UDW1: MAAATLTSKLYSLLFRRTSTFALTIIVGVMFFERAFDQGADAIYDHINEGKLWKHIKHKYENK
UniProt Q9P2Y5: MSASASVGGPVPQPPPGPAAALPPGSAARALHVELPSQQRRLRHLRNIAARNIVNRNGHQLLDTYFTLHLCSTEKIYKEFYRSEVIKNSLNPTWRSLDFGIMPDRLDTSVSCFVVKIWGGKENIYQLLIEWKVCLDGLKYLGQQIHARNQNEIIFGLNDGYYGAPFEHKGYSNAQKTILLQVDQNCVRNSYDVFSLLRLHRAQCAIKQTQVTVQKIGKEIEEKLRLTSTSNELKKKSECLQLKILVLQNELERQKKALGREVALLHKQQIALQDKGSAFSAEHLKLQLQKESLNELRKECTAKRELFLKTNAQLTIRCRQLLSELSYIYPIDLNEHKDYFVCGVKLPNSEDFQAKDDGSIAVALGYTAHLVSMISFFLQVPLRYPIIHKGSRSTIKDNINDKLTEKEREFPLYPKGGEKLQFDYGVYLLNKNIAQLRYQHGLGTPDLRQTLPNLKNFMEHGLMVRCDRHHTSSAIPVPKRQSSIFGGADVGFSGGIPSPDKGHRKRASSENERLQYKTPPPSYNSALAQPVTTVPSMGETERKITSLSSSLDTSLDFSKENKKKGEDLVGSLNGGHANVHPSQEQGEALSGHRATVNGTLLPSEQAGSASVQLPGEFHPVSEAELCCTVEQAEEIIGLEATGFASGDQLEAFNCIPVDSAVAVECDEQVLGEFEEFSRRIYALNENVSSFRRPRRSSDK
UniProt Q9NQZ2: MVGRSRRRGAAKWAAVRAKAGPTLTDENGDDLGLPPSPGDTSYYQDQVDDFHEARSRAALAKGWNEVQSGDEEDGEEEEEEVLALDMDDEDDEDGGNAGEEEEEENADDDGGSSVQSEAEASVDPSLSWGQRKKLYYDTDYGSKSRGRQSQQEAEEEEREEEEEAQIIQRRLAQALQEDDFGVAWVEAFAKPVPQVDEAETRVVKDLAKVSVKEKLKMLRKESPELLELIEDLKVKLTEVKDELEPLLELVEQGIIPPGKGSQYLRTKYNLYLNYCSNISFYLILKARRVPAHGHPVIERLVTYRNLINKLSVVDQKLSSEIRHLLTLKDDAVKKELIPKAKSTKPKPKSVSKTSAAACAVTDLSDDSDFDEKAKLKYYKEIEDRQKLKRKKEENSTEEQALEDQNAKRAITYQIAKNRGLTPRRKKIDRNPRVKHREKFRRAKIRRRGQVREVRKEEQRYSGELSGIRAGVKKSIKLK
UniProt Q9BZI7: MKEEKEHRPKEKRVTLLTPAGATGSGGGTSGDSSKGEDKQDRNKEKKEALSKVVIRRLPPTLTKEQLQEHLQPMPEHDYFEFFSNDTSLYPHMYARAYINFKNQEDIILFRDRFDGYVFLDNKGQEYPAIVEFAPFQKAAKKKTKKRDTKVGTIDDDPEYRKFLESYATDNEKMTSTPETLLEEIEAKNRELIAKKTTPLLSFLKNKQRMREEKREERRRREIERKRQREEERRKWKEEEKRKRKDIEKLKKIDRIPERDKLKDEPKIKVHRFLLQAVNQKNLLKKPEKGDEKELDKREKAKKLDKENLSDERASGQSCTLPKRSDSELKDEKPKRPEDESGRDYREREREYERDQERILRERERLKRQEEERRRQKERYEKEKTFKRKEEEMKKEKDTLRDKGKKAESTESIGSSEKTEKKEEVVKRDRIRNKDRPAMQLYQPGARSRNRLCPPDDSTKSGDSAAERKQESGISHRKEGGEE
UniProt A6NIH7: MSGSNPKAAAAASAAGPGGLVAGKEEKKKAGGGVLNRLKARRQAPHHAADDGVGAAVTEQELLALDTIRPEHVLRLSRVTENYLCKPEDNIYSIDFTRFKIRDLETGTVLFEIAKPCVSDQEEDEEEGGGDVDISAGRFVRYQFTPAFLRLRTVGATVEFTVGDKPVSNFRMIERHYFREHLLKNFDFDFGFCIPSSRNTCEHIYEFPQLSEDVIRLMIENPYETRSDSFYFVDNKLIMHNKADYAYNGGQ
UniProt Q96LJ8: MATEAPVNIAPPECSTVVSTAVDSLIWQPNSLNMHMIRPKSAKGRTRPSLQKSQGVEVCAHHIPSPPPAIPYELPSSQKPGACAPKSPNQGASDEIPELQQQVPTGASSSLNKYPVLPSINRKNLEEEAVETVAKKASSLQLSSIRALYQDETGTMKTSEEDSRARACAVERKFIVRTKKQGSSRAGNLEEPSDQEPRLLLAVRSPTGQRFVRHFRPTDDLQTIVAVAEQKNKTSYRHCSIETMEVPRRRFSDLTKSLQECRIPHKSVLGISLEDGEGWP

Assays:
Assay in all cases: log2 fold change, soluble protein after heating vs DMSO (PISA); higher = thermal stabilisation; K562 cells, 10 uM, 30 min; active = over 0.2 and 3.5 SD of the protein, either way, in both replicates (recomputed)
[1] = compound: COC1=CC=C(C=C1)CN2C=CC3=C2C=C(C=C3)C(=O)NO
How it was run: (§1)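 Soluble protein was quantified by TMTpro 16plex LC-MS/MS after channel sums were equalised. It was obtained as the supernatant after 21,000xg for 90 min from pooled aliquots of K562 cells (2×10^6 cells/mL, 10 μM compound, 30 min) heated for 3 min across 48°C-58°C and extracted in PBS with 0.5% NP-40 at 4°C. Thermal stability values are relative to control samples and come from duplicates. They are given as log2 fold changes.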

[2] = compound: CON(C)C(=O)N1N=C(c2cc(F)ccc2F)S[C@@]1(CCCN)c1ccccc1 [filanesib]
How it was run: as §1

[3] = compound: CO[C@H]1C[C@@H]2CC[C@@H](C)[C@@](O)(O2)C(=O)C(=O)N2CCCC[C@H]2C(=O)O[C@H]([C@H](C)C[C@@H]2CC[C@H](n3cnnn3)[C@H](OC)C2)CC(=O)[C@H](C)/C=C(\C)[C@@H](O)[C@@H](OC)C(=O)[C@H](C)C[C@H](C)/C=C/C=C/C=C/1C [zotarolimus]
How it was run: as §1

[4] = compound: COc1cc(C(=O)O)ccc1NC(=O)[C@@H]1N[C@@H](CC(C)(C)C)[C@](C#N)(c2ccc(Cl)cc2F)[C@H]1c1cccc(Cl)c1F [idasanutlin]
How it was run: as §1

[5] = compound: COc1cc(Nc2ncc3c(n2)-c2ccc(Cl)cc2C(c2c(F)cccc2OC)=NC3)ccc1C(=O)O [alisertib]
How it was run: as §1

[6] = compound: COc1cc2nc(-c3cc(F)ccc3O)nc(N[C@@H]3CNC[C@H]3C(C)(C)O)c2cc1OC
How it was run: as §1

[7] = compound: COc1cc2ncnc(Nc3ccc(F)c(Cl)c3)c2cc1OCCCN1CCOCC1 [gefitinib]
How it was run: as §1

[8] = compound: COc1cccc2cc(-c3nc([C@H]4CC[C@H](C(=O)O)CC4)n4ncnc(N)c34)[nH]c12
How it was run: as §1

[9] = compound: CS(=O)(=O)CCNCc1ccc(-c2ccc3ncnc(Nc4ccc(OCc5cccc(F)c5)c(Cl)c4)c3c2)o1 [lapatinib]
How it was run: as §1

[10] = compound: CS(=O)(=O)N1CCN(Cc2cc3nc(-c4cccc5[nH]ncc45)nc(N4CCOCC4)c3s2)CC1 [pictilisib]
How it was run: as §1

Measured: log2 fold change

UROD (UniProt P06132)
inactive: [1] 0.048 | [2] 0.007 | [3] -0.015 | [4] 0.013 | [5] -0.125 | [6] -0.073 | [7] -0.021 | [8] 0.016 | [9] 0.044 | [10] -0.026

VAPB (UniProt O95292)
inactive: [1] -0.02 | [2] -0.027 | [3] 0.034 | [4] -0.016 | [5] -0.032 | [6] 0.06 | [7] 0.016 | [8] 0.006 | [9] -0.033 | [10] -0.063

UTP4 (UniProt Q969X6)
inactive: [1] -0.05 | [2] -0.043 | [3] -0.017 | [4] -0.034 | [5] -0.095 | [6] 0.132 | [7] 0 | [8] 0.029 | [9] -0.006 | [10] 0.035

VAPA isoform 2 (UniProt Q9P0L0)
inactive: [1] 0.006 | [2] -0.019 | [3] -0.036 | [4] -0.019 | [5] -0.034 | [6] 0 | [7] 0.046 | [8] 0.021 | [9] 0.006 | [10] -0.043

UGT8 (UniProt Q16880)
inactive: [1] -0.069 | [2] 0.268 | [3] 0.235 | [4] 0.087 | [5] -0.031 | [6] 0.018 | [7] 0.058 | [8] -0.042 | [9] 0.317 | [10] -0.026

UBL4A (UniProt P11441)
inactive: [1] -0.07 | [2] 0.017 | [3] 0.039 | [4] 0.147 | [5] -0.011 | [6] -0.013 | [7] -0.029 | [8] 0.008 | [9] 0.021 | [10] 0.027

URI1 (UniProt O94763)
inactive: [1] 0.011 | [2] 0.016 | [3] -0.041 | [4] -0.015 | [5] -0.004 | [6] 0.022 | [7] 0.008 | [8] 0.005 | [9] -0.023 | [10] -0.026

UNC93B1 (UniProt Q9H1C4)
inactive: [1] 0.069 | [2] -0.18 | [3] -0.036 | [4] 0.048 | [5] 0.134 | [6] 0.016 | [7] 0.048 | [8] -0.364 | [9] -0.019 | [10] 0.05

USP1 (UniProt O94782)
inactive: [1] 0.107 | [2] -0.094 | [3] 0.062 | [4] 0.21 | [7] 0.141

UBQLN4 (UniProt Q9NRR5)
inactive: [1] 0.091 | [2] -0.074 | [3] 0.04 | [4] 0.003 | [5] -0.043 | [6] -0.043 | [7] 0.043 | [8] 0.044 | [9] 0.024 | [10] 0.031

UFL1 (UniProt O94874)
inactive: [1] 0.029 | [2] -0.022 | [3] 0.025 | [4] -0.108 | [5] -0.074 | [6] 0.212 | [7] 0.003 | [8] -0.071 | [9] -0.017 | [10] 0.016

UGCG (UniProt Q16739)
inactive: [1] 0.009 | [2] -0.005 | [3] -0.094 | [4] 0.028 | [5] 0.077 | [6] -0.082 | [8] 0.013 | [9] -0.036

UBTF (UniProt P17480)
inactive: [1] -0.402 | [2] -0.032 | [3] -0.143 | [4] 0.218 | [5] -0.269 | [8] -0.128 | [10] -0.154

USP6NL isoform 2 (UniProt Q92738)
inactive: [1] 0.173 | [2] 0.022 | [3] 0.069 | [4] 0.091 | [6] -0.037 | [7] -0.035 | [9] 0.013

UXT isoform 2 (UniProt Q9UBK9)
inactive: [2] 0.001 | [3] -0.067 | [4] 0.026 | [5] -0.016 | [6] 0.033 | [7] 0.049 | [8] -0.025 | [9] 0.077 | [10] 0.25
active: [1] 0.473

UNK (UniProt Q9C0B0)
inactive: [1] 0.002 | [2] 0.052 | [3] 0.038 | [4] 0.049 | [5] -0.04 | [6] 0.197 | [7] 0.059 | [8] -0.069 | [9] -0.037 | [10] -0.032

USP24 (UniProt Q9UPU5)
active: [3] 0.397 | [4] -0.342 | [8] 0.385
inactive: [1] -0.03 | [2] -0.179 | [5] -0.008 | [6] 0.116 | [7] 0.099 | [9] 0.019 | [10] 0.258

UQCRFS1 (UniProt P47985)
inactive: [1] 0 | [2] -0.089 | [3] 0 | [4] 0.05 | [5] -0.089 | [6] 0.019 | [7] 0.003 | [8] 0.006 | [9] -0.03 | [10] 0.016

UBE4A isoform 2 (UniProt Q14139)
inactive: [1] 0.037 | [2] -0.023 | [3] -0.003 | [4] 0.008 | [5] -0.003 | [6] -0.024 | [7] -0.056 | [8] -0.073 | [9] 0.022 | [10] 0.016

UQCR10 (UniProt Q9UDW1)
inactive: [1] -0.084 | [2] -0.05 | [3] -0.02 | [4] 0.031 | [5] -0.005 | [6] 0.037 | [7] -0.028 | [8] 0.022 | [9] -0.038 | [10] -0.063

UVRAG (UniProt Q9P2Y5)
inactive: [1] -0.095 | [2] -0.013 | [3] 0.044 | [4] -0.18 | [5] 0.066 | [6] 0.166 | [7] 0.017 | [8] -0.046 | [9] -0.012 | [10] 0.034

VAPA (UniProt Q9P0L0)
inactive: [1] -0.056 | [2] -0.014 | [3] -0.017 | [4] -0.034 | [5] -0.025 | [6] 0.028 | [7] 0.036 | [8] 0.036 | [9] -0.057 | [10] -0.277

UTP3 (UniProt Q9NQZ2)
inactive: [1] -0.058 | [2] 0.368 | [3] 0.125 | [4] 0.26 | [5] -0.09 | [6] -0.074 | [8] -0.067 | [9] 0.204 | [10] -0.06

UPF3B (UniProt Q9BZI7)
inactive: [1] -0.044 | [2] 0.26 | [3] -0.015 | [4] 0.209 | [5] -0.048 | [6] 0.187 | [7] 0.061 | [8] -0.114 | [9] 0.234 | [10] -0.058

UNC119B (UniProt A6NIH7)
inactive: [1] -0.232 | [2] 0.059 | [3] 0.074 | [4] -0.034 | [5] -0.185 | [6] 0.069 | [7] 0.116 | [8] -0.002 | [9] 0.06 | [10] 0.092

VANGL1 (UniProt Q8TAA9)
inactive: [1] -0.005 | [2] 0.147 | [3] -0.048 | [4] -0.1 | [5] -0.018 | [6] -0.036 | [7] -0.063 | [8] 0.054 | [9] -0.048 | [10] 0.097

Copied from above (6 entries):
UBE4A isoform 2 (UniProt Q14139)
inactive: [1] 0.037 | [2] -0.023 | [3] -0.003 | [4] 0.008 | [5] -0.003 | [6] -0.024 | [7] -0.056 | [8] -0.073 | [9] 0.022 | [10] 0.016

UQCR10 (UniProt Q9UDW1)
inactive: [1] -0.084 | [2] -0.05 | [3] -0.02 | [4] 0.031 | [5] -0.005 | [6] 0.037 | [7] -0.028 | [8] 0.022 | [9] -0.038 | [10] -0.063

UVRAG (UniProt Q9P2Y5)
inactive: [1] -0.095 | [2] -0.013 | [3] 0.044 | [4] -0.18 | [5] 0.066 | [6] 0.166 | [7] 0.017 | [8] -0.046 | [9] -0.012 | [10] 0.034

VAPA (UniProt Q9P0L0)
inactive: [1] -0.056 | [2] -0.014 | [3] -0.017 | [4] -0.034 | [5] -0.025 | [6] 0.028 | [7] 0.036 | [8] 0.036 | [9] -0.057 | [10] -0.277

UTP3 (UniProt Q9NQZ2)
inactive: [1] -0.058 | [2] 0.368 | [3] 0.125 | [4] 0.26 | [5] -0.09 | [6] -0.074 | [8] -0.067 | [9] 0.204 | [10] -0.06

UPF3B (UniProt Q9BZI7)
inactive: [1] -0.044 | [2] 0.26 | [3] -0.015 | [4] 0.209 | [5] -0.048 | [6] 0.187 | [7] 0.061 | [8] -0.114 | [9] 0.234 | [10] -0.058

(continued)

USP7 (UniProt Q93009)
inactive: [1] 0.034 | [2] -0.14 | [3] -0.007 | [4] -0.053 | [5] 0.144 | [6] 0.039 | [7] 0.04 | [8] 0.019 | [9] -0.029 | [10] 0.002

UTP18 (UniProt Q9Y5J1)
inactive: [1] 0.035 | [2] 0.284 | [7] -0.067 | [10] 0.091

UBXN10 (UniProt Q96LJ8)
inactive: [1] 0.059 | [2] 0.038 | [3] -0.049 | [5] 0.016 | [6] -0.071 | [7] -0.079 | [8] -0.11 | [9] 0.097 | [10] -0.008

USP12 (UniProt O75317)
inactive: [3] 0.078 | [4] -0.022 | [5] 0.025 | [8] 0.264 | [10] 0.038
